Part of at least one peptide drawing is inferred or uncertain, most often the ends.
Test system: yeast MATa/sst1Δ strain EY957
Experiment: Yeast cell arrest (halo) assay
Type: cell-based
Settings: for CA50 (cell arrest50): amount of peptide per disk required to cause 50% of cell arrest; for CA50 compared with wild-type (αFWT) α-Factor / maximal zone of inhibition (z.o.iint) compared with wild-type (αFWT) α-Factor: comparison in words; for z.o.i.int (y-intercept of upper asymptote of zone of inhibition curve): relative maximal effect, z.o.i. vs pmoles spotted per 6.5 mm disk
Text: The mature wild-type α-Factor peptide is a 13 amino acid pheromone secreted by type […] yeast cells, which upon binding to the α-Factor receptor transmits a signal to an internally located G-protein. Once activated, this G protein triggers a series of intracellular events which lead to cellular differentiation (Elion et al., Cell, 60:649-664 (1990)). In the presence of external α-Factor, yeast cells in the early G1 phase of growth will undergo cell cycle arrest. The bioactivity of each recombinant α-Factor could easily be determined in halo assays as a region of low cell density surrounding a central disk spotted with α-Factor (FIG. 5).
Lawns of yeast MATa/sst1Δ strain EY957 were grown on YPD plates and were tested for α-Factor sensitivity as previously described (Elion et al., Cell, 60:649-664 (1990)). α-Factor peptides were dissolved in DMSO and spotted on sterile 6.5 mm paper disks. Peptide amounts were as follows: Wild-type α-Factor (αFWT)-595 pmoles; αI13-homoserine-lactone (αI13-HSl)-6,850 pmoles; αI13-homoserine (αI13-HS)-1,130 pmoles; αI13-homoserine-amide (αI13-HSA)-2,820 pmoles. The zones of inhibition (z.o.i.) for each peptide is the diameter of the low cell density region.
HPLC purified recombinant α-factor-HS, α-factor-HS-conjugates, and synthetic α-factors were dissolved in DMSO at concentrations of 1 mg/mL. A 10-fold diluted stock solution was also made for each peptide in 60% H2 O/40% CH3 CN/0.1% TFA. Wild-type α-factor was from Sigma and αI13 and αL13 were synthesized by standard fmoc solid phase chemistry. The EY957 yeast strain (MATa/sst1Δ) was kindly provided by E. Elion at the Harvard Medical School. The cell arrest assays were performed according to Elion et al., Cell, 60:649-664 (1990) except that 100 μL of an overnight culture of EY957 was used instead of 50 μL.
^c The zone of inhibition in mm (z.o.i.) was measured for each series
^d The cell arrest50 (CA50) values in pmoles were calculate

CC[C@H](C)[C@H](NC(=O)[C@@H]1CCCN1C(=O)[C@H](CCC(N)=O)NC(=O)CNC(=O)[C@@H]1CCCN1C(=O)[C@H](CCCCN)NC(=O)[C@H](CC(C)C)NC(=O)[C@H](CCC(N)=O)NC(=O)[C@H](CC(C)C)NC(=O)[C@H](Cc1c[nH]c2ccccc12)NC(=O)[C@H](Cc1c[nH]cn1)NC(=O)[C@@H](N)Cc1c[nH]c2ccccc12)C(=O)N[C@@H](Cc1ccc(O)cc1)C(=O)O [αI13, WHWLQLKPGQPIY]
CA50 (cell arrest50): 84 ± 33 pmol | CA50 compared with wild-type (αFWT) α-Factor: essentially identical | maximal zone of inhibition (z.o.iint) compared with wild-type (αFWT) α-Factor: essentially identical | z.o.i.int (y-intercept of upper asymptote of zone of inhibition curve): 27 mm

CC[C@H](C)[C@H](NC(=O)[C@@H]1CCCN1C(=O)[C@H](CCC(N)=O)NC(=O)CNC(=O)[C@@H]1CCCN1C(=O)[C@H](CCCCN)NC(=O)[C@H](CC(C)C)NC(=O)[C@H](CCC(N)=O)NC(=O)[C@H](CC(C)C)NC(=O)[C@H](Cc1c[nH]c2ccccc12)NC(=O)[C@H](Cc1c[nH]cn1)NC(=O)[C@@H](N)Cc1c[nH]c2ccccc12)C(=O)N[C@@H](Cc1ccc(O)cc1)C(=O)N[C@@H](CCO)C(=O)O [αI13-HS, αI13-homoserine]
CA50 (cell arrest50): 95 ± 37 pmol | z.o.i.int (y-intercept of upper asymptote of zone of inhibition curve): 18 mm | CA50 as percent of the wild-type value (relative to αFWT): 128% | z.o.iint as fraction of wild-type (relative to αFWT): 2/3

CC[C@H](C)[C@H](NC(=O)[C@@H]1CCCN1C(=O)[C@H](CCC(N)=O)NC(=O)CNC(=O)[C@@H]1CCCN1C(=O)[C@H](CCCCN)NC(=O)[C@H](CC(C)C)NC(=O)[C@H](CCC(N)=O)NC(=O)[C@H](CC(C)C)NC(=O)[C@H](Cc1c[nH]c2ccccc12)NC(=O)[C@H](Cc1c[nH]cn1)NC(=O)[C@@H](N)Cc1c[nH]c2ccccc12)C(=O)N[C@@H](Cc1ccc(O)cc1)C(=O)N[C@@H](CCO)C(=O)NCCNc1cccc2c(S(=O)(=O)O)cccc12 [αI13-HS-ANS]
effect in cell arrest assay (at 740 pmoles): no effect

CC[C@H](C)[C@H](NC(=O)[C@@H]1CCCN1C(=O)[C@H](CCC(N)=O)NC(=O)CNC(=O)[C@@H]1CCCN1C(=O)[C@H](CCCCN)NC(=O)[C@H](CC(C)C)NC(=O)[C@H](CCC(N)=O)NC(=O)[C@H](CC(C)C)NC(=O)[C@H](Cc1c[nH]c2ccccc12)NC(=O)[C@H](Cc1c[nH]cn1)NC(=O)[C@@H](N)Cc1c[nH]c2ccccc12)C(=O)N[C@@H](Cc1ccc(O)cc1)C(=O)N[C@@H](CCO)C(N)=O [αI13-HSA, αI13-homoserine-amide]
increase in CA50 on amidation of the C-terminal HS lactone: > 11 fold | CA50 (cell arrest50): > 830 pmol

CC(C)C[C@H](NC(=O)[C@H](Cc1c[nH]c2ccccc12)NC(=O)[C@H](Cc1c[nH]cn1)NC(=O)[C@@H](N)Cc1c[nH]c2ccccc12)C(=O)N[C@@H](CCC(N)=O)C(=O)N[C@@H](CC(C)C)C(=O)N[C@@H](CCCCN)C(=O)N1CCC[C@H]1C(=O)NCC(=O)N[C@@H](CCC(N)=O)C(=O)N1CCC[C@H]1C(=O)N[C@@H](CC(C)C)C(=O)N[C@@H](Cc1ccc(O)cc1)C(=O)O [αL13, WHWLQLKPGQPLY]
CA50 (cell arrest50): 91 ± 40 pmol | CA50 compared with wild-type (αFWT) α-Factor: essentially identical | maximal zone of inhibition (z.o.iint) compared with wild-type (αFWT) α-Factor: essentially identical | z.o.i.int (y-intercept of upper asymptote of zone of inhibition curve): 26 mm

Source: patent publication US5648244A, “Production, purification, cleavage and use of fusion peptides” (President and Fellows of Harvard College, priority 1993, dated 1997)
